This is one part of the list.
Tests used:
Test in all cases: log2 fold change, soluble protein after heating vs DMSO (PISA); higher = thermal stabilisation; K562 lysate, 10 uM; active = over 0.2 and 3.5 SD of the protein, either way, in both replicates (recomputed)
[1] = compound: NCC(=O)Nc1ccc(-n2nc(C(F)(F)F)cc2-c2ccc3c(ccc4ccccc43)c2)cc1
How it was run: (§1)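 Following dounce homogenisation of K562 pellets in PBS pH 7.4 with 1 mM MgCl2, crude extract at 1 mg/mL protein was incubated for 30 min with 10 μM compound. Aliquots were then heated for 3 min over 48°C-58°C and pooled, NP-40 was added to 0.5% at 4°C, and soluble protein was recovered as the supernatant at 21,000xg for 90 min. Channel-sum-equalised TMTpro 16plex LC-MS/MS quantified this protein. Each value, from duplicates, is a log-two fold change in thermal stability relative to solvent controls.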

The chains behind the UniProt entries cited, without tags or fusion partners. Where a name states a change or a piece, a line headed by the entry shows the natural chain unless it says otherwise.
UniProt O00142: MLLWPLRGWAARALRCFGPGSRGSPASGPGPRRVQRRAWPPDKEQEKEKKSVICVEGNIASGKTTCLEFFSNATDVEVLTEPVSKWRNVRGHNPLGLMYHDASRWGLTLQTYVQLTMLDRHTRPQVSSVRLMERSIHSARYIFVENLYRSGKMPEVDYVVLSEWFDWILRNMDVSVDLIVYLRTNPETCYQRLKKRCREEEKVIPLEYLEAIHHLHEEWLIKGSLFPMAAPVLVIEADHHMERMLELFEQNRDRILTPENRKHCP
UniProt Q9BV44: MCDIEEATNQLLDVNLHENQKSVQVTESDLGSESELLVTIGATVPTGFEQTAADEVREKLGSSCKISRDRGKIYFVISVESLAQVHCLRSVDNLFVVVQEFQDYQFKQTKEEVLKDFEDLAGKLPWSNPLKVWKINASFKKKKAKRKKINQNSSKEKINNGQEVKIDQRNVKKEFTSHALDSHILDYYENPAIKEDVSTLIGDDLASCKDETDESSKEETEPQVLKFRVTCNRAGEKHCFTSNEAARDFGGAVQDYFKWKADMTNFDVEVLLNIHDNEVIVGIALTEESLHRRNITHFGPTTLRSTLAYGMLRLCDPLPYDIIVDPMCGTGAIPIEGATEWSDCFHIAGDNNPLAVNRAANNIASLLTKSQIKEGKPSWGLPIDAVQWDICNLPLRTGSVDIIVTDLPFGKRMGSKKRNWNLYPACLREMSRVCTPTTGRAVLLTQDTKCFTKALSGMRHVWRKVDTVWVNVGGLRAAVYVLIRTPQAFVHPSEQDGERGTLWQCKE
UniProt Q9NS93: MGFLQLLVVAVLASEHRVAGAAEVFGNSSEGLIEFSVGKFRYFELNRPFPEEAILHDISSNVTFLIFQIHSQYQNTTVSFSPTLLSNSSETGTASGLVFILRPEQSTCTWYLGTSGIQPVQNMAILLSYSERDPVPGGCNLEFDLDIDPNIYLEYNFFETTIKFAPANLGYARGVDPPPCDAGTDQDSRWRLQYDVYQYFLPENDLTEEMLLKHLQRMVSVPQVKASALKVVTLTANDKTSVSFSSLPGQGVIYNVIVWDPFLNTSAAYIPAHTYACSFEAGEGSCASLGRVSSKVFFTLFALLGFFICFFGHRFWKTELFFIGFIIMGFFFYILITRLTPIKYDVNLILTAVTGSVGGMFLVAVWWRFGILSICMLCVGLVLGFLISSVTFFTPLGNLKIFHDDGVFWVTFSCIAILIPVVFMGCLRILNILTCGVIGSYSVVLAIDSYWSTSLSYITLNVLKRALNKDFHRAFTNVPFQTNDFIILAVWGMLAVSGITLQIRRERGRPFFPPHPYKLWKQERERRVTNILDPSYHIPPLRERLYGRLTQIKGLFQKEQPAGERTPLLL
UniProt Q3ZCQ8: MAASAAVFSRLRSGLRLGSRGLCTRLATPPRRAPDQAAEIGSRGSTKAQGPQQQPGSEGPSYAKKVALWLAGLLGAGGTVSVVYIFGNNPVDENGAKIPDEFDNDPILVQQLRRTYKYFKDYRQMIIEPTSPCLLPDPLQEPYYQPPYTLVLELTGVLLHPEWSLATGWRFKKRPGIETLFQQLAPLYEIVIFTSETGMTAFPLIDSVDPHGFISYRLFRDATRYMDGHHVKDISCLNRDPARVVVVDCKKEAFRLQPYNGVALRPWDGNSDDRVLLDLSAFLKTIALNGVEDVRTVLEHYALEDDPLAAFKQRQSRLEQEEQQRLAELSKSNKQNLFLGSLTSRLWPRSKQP
UniProt Q3LXA3: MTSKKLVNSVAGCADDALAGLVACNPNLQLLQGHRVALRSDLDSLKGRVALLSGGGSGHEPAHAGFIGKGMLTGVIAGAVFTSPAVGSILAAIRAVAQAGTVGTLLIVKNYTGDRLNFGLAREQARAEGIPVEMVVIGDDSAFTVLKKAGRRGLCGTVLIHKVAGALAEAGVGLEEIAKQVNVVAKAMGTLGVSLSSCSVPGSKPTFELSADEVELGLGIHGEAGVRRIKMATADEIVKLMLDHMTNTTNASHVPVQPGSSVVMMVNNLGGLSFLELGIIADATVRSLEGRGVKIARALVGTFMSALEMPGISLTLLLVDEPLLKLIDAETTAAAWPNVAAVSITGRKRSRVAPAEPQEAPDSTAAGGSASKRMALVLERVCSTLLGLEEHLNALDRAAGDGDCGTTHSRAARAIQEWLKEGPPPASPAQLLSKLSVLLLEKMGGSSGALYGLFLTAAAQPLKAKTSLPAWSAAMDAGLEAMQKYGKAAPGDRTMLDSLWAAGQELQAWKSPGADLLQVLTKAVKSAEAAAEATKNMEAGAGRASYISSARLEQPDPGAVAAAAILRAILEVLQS
UniProt Q8NDZ6: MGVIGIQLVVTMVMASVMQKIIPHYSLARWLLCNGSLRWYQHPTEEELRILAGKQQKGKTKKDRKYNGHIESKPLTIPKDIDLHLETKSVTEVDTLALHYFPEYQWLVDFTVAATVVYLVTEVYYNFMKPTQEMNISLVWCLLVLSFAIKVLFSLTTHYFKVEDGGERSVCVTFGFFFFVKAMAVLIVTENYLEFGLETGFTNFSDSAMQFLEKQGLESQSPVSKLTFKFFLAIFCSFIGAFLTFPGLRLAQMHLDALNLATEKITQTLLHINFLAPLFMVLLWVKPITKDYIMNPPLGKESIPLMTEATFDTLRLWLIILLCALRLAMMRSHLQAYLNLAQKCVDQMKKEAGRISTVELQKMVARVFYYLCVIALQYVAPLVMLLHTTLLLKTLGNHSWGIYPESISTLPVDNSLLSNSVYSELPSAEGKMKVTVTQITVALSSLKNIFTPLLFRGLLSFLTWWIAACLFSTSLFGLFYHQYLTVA
UniProt Q96I45: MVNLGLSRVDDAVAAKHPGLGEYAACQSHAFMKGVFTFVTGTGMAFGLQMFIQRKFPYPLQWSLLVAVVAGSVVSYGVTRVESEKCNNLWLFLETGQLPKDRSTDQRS
UniProt Q9BSF4: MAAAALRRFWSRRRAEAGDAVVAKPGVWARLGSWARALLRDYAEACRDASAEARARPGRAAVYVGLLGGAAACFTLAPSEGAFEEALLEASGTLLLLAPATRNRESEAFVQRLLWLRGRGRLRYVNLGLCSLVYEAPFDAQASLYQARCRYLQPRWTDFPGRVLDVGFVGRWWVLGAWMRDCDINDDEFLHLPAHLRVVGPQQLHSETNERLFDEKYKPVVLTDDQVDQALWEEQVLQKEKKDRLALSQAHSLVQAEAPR
UniProt Q6PL24: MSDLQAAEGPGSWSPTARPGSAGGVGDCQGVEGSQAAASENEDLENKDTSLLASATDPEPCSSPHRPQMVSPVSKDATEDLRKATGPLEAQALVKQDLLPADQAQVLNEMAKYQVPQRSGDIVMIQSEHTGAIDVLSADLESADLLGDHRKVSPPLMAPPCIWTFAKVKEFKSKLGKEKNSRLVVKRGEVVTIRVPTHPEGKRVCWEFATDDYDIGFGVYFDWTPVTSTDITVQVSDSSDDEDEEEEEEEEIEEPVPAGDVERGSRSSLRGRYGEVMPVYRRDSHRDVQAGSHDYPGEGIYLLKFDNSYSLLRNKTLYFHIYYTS
UniProt Q9Y5J6: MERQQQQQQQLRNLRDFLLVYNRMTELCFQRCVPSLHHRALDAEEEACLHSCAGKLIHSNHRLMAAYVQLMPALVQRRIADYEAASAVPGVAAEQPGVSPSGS
UniProt Q9H7F4: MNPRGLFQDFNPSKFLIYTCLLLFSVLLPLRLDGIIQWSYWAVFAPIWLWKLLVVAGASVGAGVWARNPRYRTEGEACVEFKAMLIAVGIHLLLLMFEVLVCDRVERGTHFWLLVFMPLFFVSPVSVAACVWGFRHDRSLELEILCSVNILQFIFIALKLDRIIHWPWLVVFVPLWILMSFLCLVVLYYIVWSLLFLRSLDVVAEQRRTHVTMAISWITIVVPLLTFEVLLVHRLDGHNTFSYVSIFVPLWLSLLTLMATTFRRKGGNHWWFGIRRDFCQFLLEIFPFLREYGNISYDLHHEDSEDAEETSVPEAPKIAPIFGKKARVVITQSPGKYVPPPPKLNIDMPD
UniProt Q9NXG2: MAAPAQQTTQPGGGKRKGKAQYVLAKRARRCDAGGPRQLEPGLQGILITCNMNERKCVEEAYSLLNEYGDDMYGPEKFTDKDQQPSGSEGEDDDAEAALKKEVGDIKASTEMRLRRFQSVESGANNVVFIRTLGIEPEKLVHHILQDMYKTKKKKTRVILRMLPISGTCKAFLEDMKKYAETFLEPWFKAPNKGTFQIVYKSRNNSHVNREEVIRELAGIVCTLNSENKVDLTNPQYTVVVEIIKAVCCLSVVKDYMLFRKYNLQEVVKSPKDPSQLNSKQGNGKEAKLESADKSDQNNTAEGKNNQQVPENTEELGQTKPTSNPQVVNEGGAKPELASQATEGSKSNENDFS
UniProt Q96CP7: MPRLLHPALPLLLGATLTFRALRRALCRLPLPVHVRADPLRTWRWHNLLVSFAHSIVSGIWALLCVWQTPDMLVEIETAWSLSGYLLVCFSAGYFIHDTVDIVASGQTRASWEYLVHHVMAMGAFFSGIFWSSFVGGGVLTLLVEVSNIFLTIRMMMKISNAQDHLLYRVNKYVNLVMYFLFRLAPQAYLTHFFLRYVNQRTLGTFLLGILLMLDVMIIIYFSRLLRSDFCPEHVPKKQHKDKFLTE
UniProt Q7Z403: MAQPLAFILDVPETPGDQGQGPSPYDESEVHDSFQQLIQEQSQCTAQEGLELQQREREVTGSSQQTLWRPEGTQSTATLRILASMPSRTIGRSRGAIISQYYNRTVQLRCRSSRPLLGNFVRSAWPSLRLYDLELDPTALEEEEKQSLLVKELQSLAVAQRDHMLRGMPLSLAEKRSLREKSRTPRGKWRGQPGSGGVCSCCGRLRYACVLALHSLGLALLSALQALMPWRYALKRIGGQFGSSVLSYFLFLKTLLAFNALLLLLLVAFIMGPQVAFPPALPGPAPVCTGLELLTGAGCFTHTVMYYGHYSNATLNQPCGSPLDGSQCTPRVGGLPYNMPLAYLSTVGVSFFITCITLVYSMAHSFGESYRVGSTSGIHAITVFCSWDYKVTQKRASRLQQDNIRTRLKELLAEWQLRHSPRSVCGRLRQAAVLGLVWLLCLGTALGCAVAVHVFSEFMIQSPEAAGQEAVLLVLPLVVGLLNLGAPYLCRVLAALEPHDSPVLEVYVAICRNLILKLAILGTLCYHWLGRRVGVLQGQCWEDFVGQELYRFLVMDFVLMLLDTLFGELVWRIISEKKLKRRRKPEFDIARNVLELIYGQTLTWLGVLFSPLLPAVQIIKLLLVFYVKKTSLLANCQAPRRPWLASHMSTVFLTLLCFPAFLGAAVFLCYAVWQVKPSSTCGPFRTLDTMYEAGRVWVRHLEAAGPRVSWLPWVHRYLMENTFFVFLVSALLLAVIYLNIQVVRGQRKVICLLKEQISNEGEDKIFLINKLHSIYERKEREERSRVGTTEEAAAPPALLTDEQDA
UniProt Q9NX00: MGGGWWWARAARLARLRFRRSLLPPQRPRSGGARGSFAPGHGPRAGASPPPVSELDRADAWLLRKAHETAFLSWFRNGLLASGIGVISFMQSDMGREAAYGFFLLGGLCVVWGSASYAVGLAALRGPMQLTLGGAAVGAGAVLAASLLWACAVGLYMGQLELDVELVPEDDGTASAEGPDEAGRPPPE
UniProt Q9Y2S6, whole entry, looked up: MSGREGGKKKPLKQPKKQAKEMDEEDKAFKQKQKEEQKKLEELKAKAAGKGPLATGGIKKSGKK
UniProt Q8IYQ7: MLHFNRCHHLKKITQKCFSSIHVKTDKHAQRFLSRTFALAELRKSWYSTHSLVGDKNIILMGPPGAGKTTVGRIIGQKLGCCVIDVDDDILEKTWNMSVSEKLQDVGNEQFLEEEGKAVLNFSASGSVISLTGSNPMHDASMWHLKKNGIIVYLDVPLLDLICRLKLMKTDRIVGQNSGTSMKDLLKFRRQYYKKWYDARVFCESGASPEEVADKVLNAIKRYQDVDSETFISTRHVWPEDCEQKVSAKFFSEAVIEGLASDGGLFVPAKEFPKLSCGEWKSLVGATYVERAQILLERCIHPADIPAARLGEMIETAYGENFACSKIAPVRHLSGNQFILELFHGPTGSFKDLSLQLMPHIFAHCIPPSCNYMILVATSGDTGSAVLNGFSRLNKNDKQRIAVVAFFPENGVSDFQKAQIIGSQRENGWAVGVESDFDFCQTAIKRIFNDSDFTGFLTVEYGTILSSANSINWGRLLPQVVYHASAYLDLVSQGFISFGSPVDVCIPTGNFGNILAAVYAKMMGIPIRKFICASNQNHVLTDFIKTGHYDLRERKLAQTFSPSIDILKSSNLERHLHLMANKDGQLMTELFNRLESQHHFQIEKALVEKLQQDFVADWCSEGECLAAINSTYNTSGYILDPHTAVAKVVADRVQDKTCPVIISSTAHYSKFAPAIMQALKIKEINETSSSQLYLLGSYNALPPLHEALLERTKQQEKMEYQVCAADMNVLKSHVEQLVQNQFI
UniProt Q9NUM4, whole entry, looked up: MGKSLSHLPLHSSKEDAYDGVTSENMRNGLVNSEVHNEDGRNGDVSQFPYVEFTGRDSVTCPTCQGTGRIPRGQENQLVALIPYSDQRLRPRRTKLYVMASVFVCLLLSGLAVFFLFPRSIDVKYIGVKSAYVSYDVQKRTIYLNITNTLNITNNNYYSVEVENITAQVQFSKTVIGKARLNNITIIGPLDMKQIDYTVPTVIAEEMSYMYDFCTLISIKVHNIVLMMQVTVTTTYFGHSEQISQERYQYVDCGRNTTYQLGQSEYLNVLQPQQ

vorinostat = compound: O=C(CCCCCCC(=O)Nc1ccccc1)NO [vorinostat]
How it was run: as §1

silmitasertib = compound: O=C(O)c1ccc2c(c1)nc(Nc1cccc(Cl)c1)c1ccncc12 [silmitasertib]
How it was run: as §1

[2] = compound: O=C1NC(=O)C(c2cnc3ccccn23)=C1c1cn2c3c(cc(F)cc13)CN(C(=O)N1CCCCC1)CC2
How it was run: as §1

entospletinib = compound: c1cn2cc(-c3ccc4cn[nH]c4c3)nc(Nc3ccc(N4CCOCC4)cc3)c2n1 [entospletinib]
How it was run: as §1

Measured: log2 fold change

TK2 isoform 6 (UniProt O00142)
inactive: [1] 0.037 | vorinostat 0.143 | silmitasertib -0.068 | [2] -0.084 | entospletinib 0.08

THUMPD3 (UniProt Q9BV44)
inactive: [1] 0.018 | vorinostat -0.069 | silmitasertib -0.013 | [2] 0.025 | entospletinib 0.023

TMED1 (UniProt Q13445)
inactive: [1] -0.116 | vorinostat -0.045 | silmitasertib 0.123 | [2] 0.074 | entospletinib -0.008

TM7SF3 (UniProt Q9NS93)
inactive: [1] -0.022 | vorinostat 0 | silmitasertib -0.011 | [2] 0.017 | entospletinib -0.042

TIMM50 isoform 2 (UniProt Q3ZCQ8)
inactive: [1] 0 | vorinostat 0.049 | silmitasertib 0.023 | [2] -0.013 | entospletinib -0.008

Taken from the listing (two entries):
TM7SF3 (UniProt Q9NS93)
inactive: [1] -0.022 | vorinostat 0 | silmitasertib -0.011 | [2] 0.017 | entospletinib -0.042

TIMM50 isoform 2 (UniProt Q3ZCQ8)
inactive: [1] 0 | vorinostat 0.049 | silmitasertib 0.023 | [2] -0.013 | entospletinib -0.008

Next part

TKFC (UniProt Q3LXA3)
inactive: [1] 0.004 | vorinostat 0.06 | silmitasertib 0.009 | [2] 0.01 | entospletinib 0.04

TMEM161B (UniProt Q8NDZ6)
inactive: [1] -0.084 | vorinostat 0.225 | silmitasertib 0 | [2] 0.019 | entospletinib -0.026

THEMIS2 (UniProt Q5TEJ8)
active: vorinostat -0.315
inactive: [1] -0.029 | silmitasertib 0.069 | [2] 0.059 | entospletinib -0.007

TMEM141 (UniProt Q96I45)
inactive: [1] -0.12 | vorinostat 0.172 | silmitasertib -0.019 | [2] 0.118

TIMM29 (UniProt Q9BSF4)
inactive: [1] 0 | vorinostat -0.023 | silmitasertib -0.012 | [2] -0.065 | entospletinib 0.07

TMED8 (UniProt Q6PL24)
inactive: [1] 0.022 | vorinostat -0.096 | silmitasertib 0.04 | [2] 0.023 | entospletinib -0.023

TIMM10B (UniProt Q9Y5J6)
inactive: [1] -0.138 | vorinostat 0.033 | silmitasertib 0.08 | [2] 0.034

TMEM185B (UniProt Q9H7F4)
inactive: [1] -0.163 | vorinostat 0.089 | silmitasertib -0.145 | [2] -0.029 | entospletinib 0.046

TIMMDC1 (UniProt Q9NPL8)
inactive: [1] 0.033 | vorinostat 0.001 | silmitasertib -0.057 | [2] 0.044 | entospletinib 0.005

THUMPD1 (UniProt Q9NXG2)
inactive: [1] -0.026 | vorinostat 0.114 | silmitasertib -0.007 | [2] -0.043 | entospletinib -0.01

TMED9 (UniProt Q9BVK6)
inactive: [1] -0.029 | vorinostat 0.09 | silmitasertib 0.006 | [2] 0.016 | entospletinib -0.073

TLCD1 (UniProt Q96CP7)
inactive: [1] -0.084 | vorinostat 0.208 | silmitasertib 0.124 | [2] -0.172 | entospletinib 0.045

TIMM10 (UniProt P62072)
inactive: [1] -0.067 | vorinostat 0.057 | silmitasertib 0.008 | [2] 0.033 | entospletinib -0.095

TMC6 (UniProt Q7Z403)
inactive: [1] 0.041 | vorinostat 0.058 | silmitasertib -0.121 | [2] -0.056

TMEM160 (UniProt Q9NX00)
inactive: [1] 0.045 | vorinostat 0.125 | silmitasertib 0.015 | [2] -0.013 | entospletinib 0.099

THEM6 (UniProt Q8WUY1)
inactive: [1] -0.009 | vorinostat 0.046 | silmitasertib 0.002 | [2] -0.029 | entospletinib -0.004

TMA7 (UniProt Q9Y2S6)
inactive: [1] 0.038 | vorinostat 0.113 | silmitasertib -0.036 | [2] -0.048 | entospletinib 0.018

TIMM9 (UniProt Q9Y5J7)
inactive: [1] -0.027 | vorinostat 0.174 | silmitasertib -0.035 | [2] 0.038 | entospletinib -0.147

THNSL1 (UniProt Q8IYQ7)
inactive: [1] -0.006 | vorinostat 0.032 | silmitasertib -0.016 | [2] 0 | entospletinib 0.025

TMEM106B (UniProt Q9NUM4)
inactive: [1] -0.007 | vorinostat 0.096 | silmitasertib 0.01 | [2] -0.043 | entospletinib 0.025
